# From the supplement of paper PMC8728848
# Some of the results follow.
# B1: PX9961Q-bfa-504-27-504 (Bacteroides fragilis) (protein)
# chain: NDWLDRKPADGIPSEDAITNYNDALTARTGMYDGIQGNSNATSYYGARMFYYGDVRADDMQARTQGMRSSSCYEMLYTVDDAPNMWNIPYNVIRRANRLIEAINEKKVTDATEAQIGKIYSEALVVRALVHFDLVRIYGMPYTADNGASLGVPVIVKPLERNDLPSRNTVAEVYTQVITDLTDAINSGYLAKDQTPGYINEWAAKALLTRVYLTKGDNENALKVAEDIITNSPYKLWTNEEYVNAWYKSNGAHTNEMIFEVVNASNDDWTDRNGIAYLLNENGYADAIVTKSFMNMLSQDPKDVRIGMVLPAQYDKDLQEEYGDAKIFINKFPADKDDVGEMRLNNLPLLRLSEVYLSAAEAAAKLGGHQDKAAKYLNEIVQRANPEAKAISEADATVERIILERRKEMIGEGQRYFDALRNNETIVRYKDEGDKGYHYSLIKESQSFDRTYFRAILPIPVDETNVNPNLRAQQNPGY
# Key:
# Test in all cases: glycan array binding signal (z-score within array); higher = stronger binding
# Conditions in all cases: glycan notation: IUPAC condensed, linker removed
# [1] = biological target: Neu5Ac(a2-3)Gal(b1-4)GlcNAc(b1-6)GalNAc
# Outline: (§1)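 The binding signal is a Z-score computed within each array. Data were drawn from 3228 arrays in the Consortium for Functional Glycomics database, restricted to those with a known protein sequence. Scores were averaged over arrays of the same protein sequence at different concentrations or buffers, and over linkers, and negative values can be taken as non-binding.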
# [2] = biological target: Neu5Ac(a2-3)Gal(b1-4)GlcNAc(b1-6)[Gal(b1-3)]GalNAc
# Outline: as §1
# [3] = biological target: Neu5Ac(a2-3)Gal(b1-4)GlcNAc(b1-6)[Neu5Ac(a2-3)Gal(b1-3)]GalNAc
# Outline: as §1
# [4] = biological target: Neu5Ac(a2-3)Gal(b1-4)GlcNAc6S
# Outline: as §1
# [5] = biological target: Neu5Ac(a2-3)Gal(b1-4)[Fuc(a1-3)]GlcNAc
# Outline: as §1
# [6] = biological target: Neu5Ac(a2-3)Gal(b1-4)[Fuc(a1-3)]GlcNAc(b1-2)Man
# Outline: as §1
# [7] = biological target: Neu5Ac(a2-3)Gal(b1-4)[Fuc(a1-3)]GlcNAc(b1-3)Gal
# Outline: as §1
# [8] = biological target: Neu5Ac(a2-3)Gal(b1-4)[Fuc(a1-3)]GlcNAc(b1-3)Gal(b1-4)GlcNAc
# Outline: as §1
# [9] = biological target: Neu5Ac(a2-3)Gal(b1-4)[Fuc(a1-3)]GlcNAc(b1-3)Gal(b1-4)[Fuc(a1-3)]GlcNAc(b1-3)Gal(b1-4)[Fuc(a1-3)]GlcNAc
# Outline: as §1
# [10] = biological target: Neu5Ac(a2-3)Gal(b1-4)[Fuc(a1-3)]GlcNAc(b1-3)GalNAc
# Outline: as §1
# [11] = biological target: Neu5Ac(a2-3)Gal(b1-4)[Fuc(a1-3)]GlcNAc(b1-6)[Gal(b1-3)]GalNAc
# Outline: as §1
# [12] = biological target: Neu5Ac(a2-3)Gal(b1-4)[Fuc(a1-3)]GlcNAc(b1-6)[Neu5Ac(a2-3)Gal(b1-3)]GalNAc
# Outline: as §1
# [13] = biological target: Neu5Ac(a2-3)Gal(b1-4)[Fuc(a1-3)]GlcNAc6S
# Outline: as §1
# [14] = biological target: Neu5Ac(a2-3)Gal6S(b1-4)GlcNAc
# Outline: as §1
# [15] = biological target: Neu5Ac(a2-3)Gal6S(b1-4)[Fuc(a1-3)]GlcNAc
# Outline: as §1
# Neu5Ac(a2-3)GalNAc = biological target: Neu5Ac(a2-3)GalNAc
# Outline: as §1
# [16] = biological target: Neu5Ac(a2-3)GalNAc(b1-4)GlcNAc
# Outline: as §1
# [17] = biological target: Neu5Ac(a2-3)[GalNAc(b1-4)]Gal(b1-4)Glc
# Outline: as §1
# [18] = biological target: Neu5Ac(a2-3)[GalNAc(b1-4)]Gal(b1-4)GlcNAc
# Outline: as §1
# [19] = biological target: Neu5Ac(a2-3)[GalNAc(b1-4)]Gal(b1-4)GlcNAc(b1-3)GalNAc
# Outline: as §1
# [20] = biological target: Neu5Ac(a2-3)[Neu5Ac(a2-6)]GalNAc
# Outline: as §1
# Neu5Ac(a2-6)Gal = biological target: Neu5Ac(a2-6)Gal
# Outline: as §1
# [21] = biological target: Neu5Ac(a2-6)Gal(b1-3)GlcNAc(b1-3)[Gal(b1-4)GlcNAc(b1-6)]Gal(b1-4)Glc
# Outline: as §1
# Neu5Ac(a2-6)Gal(b1-4)Glc = biological target: Neu5Ac(a2-6)Gal(b1-4)Glc
# Outline: as §1
# [22] = biological target: Neu5Ac(a2-6)Gal(b1-4)GlcNAc
# Outline: as §1
# [23] = biological target: Neu5Ac(a2-6)Gal(b1-4)GlcNAc(b1-2)Man
# Outline: as §1
# [24] = biological target: Neu5Ac(a2-6)Gal(b1-4)GlcNAc(b1-2)Man(a1-3)Man(b1-4)GlcNAc(b1-4)GlcNAc
# Outline: as §1
# [25] = biological target: Neu5Ac(a2-6)Gal(b1-4)GlcNAc(b1-2)Man(a1-3)[Gal(b1-4)GlcNAc(b1-2)Man(a1-6)]Man(b1-4)GlcNAc(b1-4)GlcNAc
# Outline: as §1
# [26] = biological target: Neu5Ac(a2-6)Gal(b1-4)GlcNAc(b1-2)Man(a1-3)[GlcNAc(b1-2)Man(a1-6)]Man(b1-4)GlcNAc(b1-4)GlcNAc
# Outline: as §1
# [27] = biological target: Neu5Ac(a2-6)Gal(b1-4)GlcNAc(b1-2)Man(a1-3)[GlcNAc(b1-4)][Neu5Ac(a2-6)Gal(b1-4)GlcNAc(b1-2)Man(a1-6)]Man(b1-4)GlcNAc(b1-4)GlcNAc
# Outline: as §1
# [28] = biological target: Neu5Ac(a2-6)Gal(b1-4)GlcNAc(b1-2)Man(a1-3)[Man(a1-6)]Man(b1-4)GlcNAc(b1-4)GlcNAc
# Outline: as §1
# [29] = biological target: Neu5Ac(a2-6)Gal(b1-4)GlcNAc(b1-2)Man(a1-3)[Neu5Ac(a2-3)Gal(b1-4)GlcNAc(b1-2)Man(a1-6)]Man(b1-4)GlcNAc(b1-4)GlcNAc
# Outline: as §1
# [30] = biological target: Neu5Ac(a2-6)Gal(b1-4)GlcNAc(b1-2)Man(a1-3)[Neu5Ac(a2-6)Gal(b1-4)GlcNAc(b1-2)Man(a1-6)]Man(b1-4)GlcNAc(b1-4)GlcNAc
# Outline: as §1
# [31] = biological target: Neu5Ac(a2-6)Gal(b1-4)GlcNAc(b1-2)Man(a1-3)[Neu5Ac(a2-6)Gal(b1-4)GlcNAc(b1-2)Man(a1-6)]Man(b1-4)GlcNAc(b1-4)[Fuc(a1-6)]GlcNAc
# Outline: as §1
# [32] = biological target: Neu5Ac(a2-6)Gal(b1-4)GlcNAc(b1-2)Man(a1-6)Man(b1-4)GlcNAc(b1-4)GlcNAc
# Outline: as §1
# [33] = biological target: Neu5Ac(a2-6)Gal(b1-4)GlcNAc(b1-2)Man(a1-6)[Gal(b1-4)GlcNAc(b1-2)Man(a1-3)]Man(b1-4)GlcNAc(b1-4)GlcNAc
# Outline: as §1
# [34] = biological target: Neu5Ac(a2-6)Gal(b1-4)GlcNAc(b1-2)Man(a1-6)[GlcNAc(b1-2)Man(a1-3)]Man(b1-4)GlcNAc(b1-4)GlcNAc
# Outline: as §1
# [35] = biological target: Neu5Ac(a2-6)Gal(b1-4)GlcNAc(b1-2)Man(a1-6)[Man(a1-3)]Man(b1-4)GlcNAc(b1-4)GlcNAc
# Outline: as §1
# [36] = biological target: Neu5Ac(a2-6)Gal(b1-4)GlcNAc(b1-2)[Neu5Ac(a2-6)Gal(b1-4)GlcNAc(b1-4)]Man(a1-3)[GlcNAc(b1-4)][Neu5Ac(a2-6)Gal(b1-4)GlcNAc(b1-2)[Neu5Ac(a2-6)Gal(b1-4)GlcNAc(b1-6)]Man(a1-6)]Man(b1-4)GlcNAc(b1-4)GlcNAc
# Outline: as §1
# [37] = biological target: Neu5Ac(a2-6)Gal(b1-4)GlcNAc(b1-2)[Neu5Ac(a2-6)Gal(b1-4)GlcNAc(b1-4)]Man(a1-3)[GlcNAc(b1-4)][Neu5Ac(a2-6)Gal(b1-4)GlcNAc(b1-4)Man(a1-6)]Man(b1-4)GlcNAc(b1-4)GlcNAc
# Outline: as §1
# [38] = biological target: Neu5Ac(a2-6)Gal(b1-4)GlcNAc(b1-2)[Neu5Ac(a2-6)Gal(b1-4)GlcNAc(b1-6)]Man(a1-6)[Neu5Ac(a2-6)Gal(b1-4)GlcNAc(b1-2)Man(a1-3)][GlcNAc(b1-4)]Man(b1-4)GlcNAc(b1-4)GlcNAc
# Outline: as §1
# [39] = biological target: Neu5Ac(a2-6)Gal(b1-4)GlcNAc(b1-3)Gal(b1-3)GlcNAc
# Outline: as §1
# [40] = biological target: Neu5Ac(a2-6)Gal(b1-4)GlcNAc(b1-3)Gal(b1-4)GlcNAc
# Outline: as §1
# [41] = biological target: Neu5Ac(a2-6)Gal(b1-4)GlcNAc(b1-3)Gal(b1-4)GlcNAc(b1-2)Man(a1-3)[Neu5Ac(a2-6)Gal(b1-4)GlcNAc(b1-3)Gal(b1-4)GlcNAc(b1-2)Man(a1-6)]GalNAc
# Outline: as §1
# [42] = biological target: Neu5Ac(a2-6)Gal(b1-4)GlcNAc(b1-3)Gal(b1-4)GlcNAc(b1-3)Gal(b1-4)GlcNAc
# Outline: as §1
# [43] = biological target: Neu5Ac(a2-6)Gal(b1-4)GlcNAc(b1-3)Gal(b1-4)GlcNAc(b1-3)Gal(b1-4)GlcNAc(b1-2)Man(a1-3)[Neu5Ac(a2-6)Gal(b1-4)GlcNAc(b1-3)Gal(b1-4)GlcNAc(b1-3)Gal(b1-4)GlcNAc(b1-2)Man(a1-6)]GalNAc
# Outline: as §1
binder,measurement,setting,value
B1,glycan array binding signal (z-score),[1],1.31
same,glycan array binding signal (z-score),[2],0.353
same,glycan array binding signal (z-score),[3],-0.62
same,glycan array binding signal (z-score),[4],-1.13
same,glycan array binding signal (z-score),[5],-0.693
same,glycan array binding signal (z-score),[6],-0.692
same,glycan array binding signal (z-score),[7],-0.21
same,glycan array binding signal (z-score),[8],1.29
same,glycan array binding signal (z-score),[9],-0.058
same,glycan array binding signal (z-score),[10],1.02
same,glycan array binding signal (z-score),[11],-0.244
same,glycan array binding signal (z-score),[12],0.854
same,glycan array binding signal (z-score),[13],-0.908
same,glycan array binding signal (z-score),[14],-0.501
same,glycan array binding signal (z-score),[15],-0.357
same,glycan array binding signal (z-score),Neu5Ac(a2-3)GalNAc,0.163
same,glycan array binding signal (z-score),[16],-0.763
same,glycan array binding signal (z-score),[17],0.131
same,glycan array binding signal (z-score),[18],-0.664
same,glycan array binding signal (z-score),[19],-0.113
same,glycan array binding signal (z-score),[20],-0.561
same,glycan array binding signal (z-score),Neu5Ac(a2-6)Gal,-0.089
same,glycan array binding signal (z-score),[21],6.14
same,glycan array binding signal (z-score),Neu5Ac(a2-6)Gal(b1-4)Glc,-0.12
same,glycan array binding signal (z-score),[22],-0.355
same,glycan array binding signal (z-score),[23],0.49
same,glycan array binding signal (z-score),[24],-0.505
same,glycan array binding signal (z-score),[25],-0.496
same,glycan array binding signal (z-score),[26],-0.61
same,glycan array binding signal (z-score),[27],0.048
same,glycan array binding signal (z-score),[28],-0.91
same,glycan array binding signal (z-score),[29],-0.382
same,glycan array binding signal (z-score),[30],0.054
same,glycan array binding signal (z-score),[31],-0.262
same,glycan array binding signal (z-score),[32],-0.801
same,glycan array binding signal (z-score),[33],0.613
same,glycan array binding signal (z-score),[34],-0.638
same,glycan array binding signal (z-score),[35],0.075
same,glycan array binding signal (z-score),[36],2.53
same,glycan array binding signal (z-score),[37],-0.474
same,glycan array binding signal (z-score),[38],-0.563
same,glycan array binding signal (z-score),[39],-0.346
same,glycan array binding signal (z-score),[40],-0.321
same,glycan array binding signal (z-score),[41],0.609
same,glycan array binding signal (z-score),[42],-0.019
same,glycan array binding signal (z-score),[43],1.56

# Some of the entries above, reformatted.
binder | measurement | setting | value
B1 | glycan array binding signal (z-score) | [6] | -0.692
same | glycan array binding signal (z-score) | [7] | -0.21
same | glycan array binding signal (z-score) | [9] | -0.058
same | glycan array binding signal (z-score) | [11] | -0.244
same | glycan array binding signal (z-score) | Neu5Ac(a2-3)GalNAc | 0.163
same | glycan array binding signal (z-score) | [18] | -0.664
same | glycan array binding signal (z-score) | [19] | -0.113
same | glycan array binding signal (z-score) | [22] | -0.355
same | glycan array binding signal (z-score) | [24] | -0.505
same | glycan array binding signal (z-score) | [25] | -0.496
same | glycan array binding signal (z-score) | [29] | -0.382
same | glycan array binding signal (z-score) | [31] | -0.262
same | glycan array binding signal (z-score) | [41] | 0.609
